These are yes or no findings as the source states them, for the method shown. In cells and extracts the contact can be indirect. Some binding calls cover weakened binding; strength is not graded here.

Sequences of proteins named here, by UniProt entry; tags and fusion partners are left off.
UniProt Q07812: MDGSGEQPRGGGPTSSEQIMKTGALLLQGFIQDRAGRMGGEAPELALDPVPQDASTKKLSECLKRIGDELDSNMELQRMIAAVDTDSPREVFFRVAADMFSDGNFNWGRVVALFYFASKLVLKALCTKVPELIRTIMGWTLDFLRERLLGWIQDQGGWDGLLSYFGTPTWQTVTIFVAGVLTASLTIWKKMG
UniProt O00429: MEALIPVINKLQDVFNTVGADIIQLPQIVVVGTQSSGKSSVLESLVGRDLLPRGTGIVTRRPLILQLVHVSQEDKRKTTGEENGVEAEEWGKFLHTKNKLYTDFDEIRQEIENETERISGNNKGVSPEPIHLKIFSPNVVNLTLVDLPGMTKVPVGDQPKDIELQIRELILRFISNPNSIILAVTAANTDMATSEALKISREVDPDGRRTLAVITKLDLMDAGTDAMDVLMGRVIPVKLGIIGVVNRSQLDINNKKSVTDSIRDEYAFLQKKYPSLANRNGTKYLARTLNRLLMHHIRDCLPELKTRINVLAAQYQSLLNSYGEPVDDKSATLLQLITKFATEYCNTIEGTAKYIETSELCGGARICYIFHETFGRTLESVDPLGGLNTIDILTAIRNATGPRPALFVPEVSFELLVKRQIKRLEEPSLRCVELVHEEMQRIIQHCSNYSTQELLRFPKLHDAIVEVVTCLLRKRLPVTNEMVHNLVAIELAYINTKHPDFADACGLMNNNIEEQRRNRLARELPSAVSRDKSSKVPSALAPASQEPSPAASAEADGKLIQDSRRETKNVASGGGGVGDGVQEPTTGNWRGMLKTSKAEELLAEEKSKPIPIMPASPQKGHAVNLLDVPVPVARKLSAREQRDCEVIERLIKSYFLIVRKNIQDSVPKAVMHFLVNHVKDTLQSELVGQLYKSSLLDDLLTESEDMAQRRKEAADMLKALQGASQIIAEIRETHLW

This test has as its target Bcl-2-associated X protein (human (endogenous in 143B and MG63)) (UniProt Q07812). Kind of test: co-IP; proteins extracted from CPT-treated 143B and MG63 cells (time course of CPT treatment); IP with Bax antibody; Drp1 and Bax detected by Western blotting. (In western blotting, separated proteins are transferred to a membrane and probed.)

For “dynamin-related protein 1 (from UniProt O00429 1-736)”, the binding entry is reported as “binds”.

The values above are taken from article PMC6350405.
